Some results were stated once for a whole list of compounds, not compound by compound. At least one structure is not confirmed: it was looked up by name or label, or the drawing left a doubt.
Test system: EG V
Experiment: Effects of metal ions, chemical modification reagents, detergents and potential inhibitors on EG V
Type: biochemical, Talaromyces emersonii
Conditions: 1 mM metal ion; relative to control without metal ion
Protocol: Substrate specificity on various polysaccharides and synthetic glycosides was evaluated by 15 measuring activity against a wide variety of carbohydrates (BBG, lichenan, CMC, other polysaccharides and synthetic glycosides) using the normal β-glucanase assay procedure. • Effects Of Metal Ions, Chemical Modification Reagents And Potential Inhibitors A range of monovalent, divalent and heavy metal ions, at final assay concentrations of 1.0 mM, were investigated for their potential effects on the activities of EG V, EG VI and EG VII, by incubating the enzymes with the chemicals and then conducting the normal enzyme assay. Finally, the inhibitor effects of glycosides, such as disaccharides, lactones and flavanoid glycosides on the purified enzymes were examined. Specified concentrations of each glycoside were included in normal assay cocktails and residual activity determined by comparison with controls (no glycoside present).
Activity was expressed as a % relative to a control (no metal ion present in incubation mixture). In general, heavy metal ions are thought to inactivate enzymes by forming covalent salts with cysteine, histidine or carboxyl groups. […]

## [Cd+2] [Cd^2+]
  decrease in activity of EG V: 26.5-77.4%

— patent US20100028485A1, “TALAROMYCES EMERSONII ENZYME SYSTEMS” (priority 2006, published 2010)
